54 sequences from paper PMC7819943, “Rice protein-binding microarrays: a tool to detect cis-acting elements near promoter regions in rice” can be followed below.

By UniProt entry, the sequences of proteins in these tests, tags left out.
UniProt Q0JBA9, entry or part of it: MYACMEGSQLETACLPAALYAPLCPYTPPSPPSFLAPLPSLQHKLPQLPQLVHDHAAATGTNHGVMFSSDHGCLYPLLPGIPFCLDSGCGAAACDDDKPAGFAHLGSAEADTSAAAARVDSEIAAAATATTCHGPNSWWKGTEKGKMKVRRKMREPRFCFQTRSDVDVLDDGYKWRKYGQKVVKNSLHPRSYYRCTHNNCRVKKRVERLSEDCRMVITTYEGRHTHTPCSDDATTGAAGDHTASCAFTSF

The other results are listed elsewhere or left out.

The assay deals with OsWRKY34 (Oryza sativa, UniProt Q0JBA9 1-250). The experiment in a line: protein-binding microarray (RPBM); PBS, 2% BSA, 51.3 ng/ul salmon testes DNA, 50 uM zinc acetate, 200 nM TF, 25 C, 1 h; high values mean tight binding. The note with it: protein: recombinant; tags: N-terminal polyhistidine and DsRed monomer fusion (pET32a); label: CyDye5-dUTP incorporated in the synthesized complementary strand; 3' TTTTT single-stranded linker to array surface; dsDNA, one strand shown. In short, it runs like this: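 Using Ni–NTA, transcription factors fused N-terminally to polyhistidine and DsRed were purified after expression in E. coli BL21-CodonPlus. These were incubated at 200 nM with a blocked, double-stranded custom Agilent array for 1 h at 25 °C in a buffer containing 50 µM zinc acetate, and the array was washed. The binding signal is per-feature fluorescence intensity (arbitrary units) on an Axon 4000B scanner.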
For the sequence “TCCGTTTCCTGCCCAACCGCGTCTTGAAAATTGTTGCTGCCGGAGTCACCTAGTGCAG”, the binding signal was 11600 fluorescence intensity (a.u.).

As for “AAAACCGACGGGCTCATTCTCCAGCTTAACTCTCACAGGTCGGAGTCACCTAGTGCAG”, the binding signal is 8660 fluorescence intensity (a.u.).

Take “CGATGATTTTGTTGCAGATATATTTTTTCCCAGCTTCTTTCGGAGTCACCTAGTGCAG”: the binding signal is 12100 fluorescence intensity (a.u.).

For “CCAAAACACTGCCGCACCACGCCTCGTTCCCGCGGACTCCCGGAGTCACCTAGTGCAG”, the binding signal is 9790 fluorescence intensity (a.u.).

As for “ACGTCTCTATTACTACCTCCATTTCATGATGTAACAATTTCGGAGTCACCTAGTGCAG”, the binding signal is 13600 fluorescence intensity (a.u.).

“ATCGCGAAGTTCGCGACCCGATTCCTCTCCGCCCGCCATGCGGAGTCACCTAGTGCAG”: the binding signal was 8380 fluorescence intensity (a.u.).

With “TTTTCGTTCATATTTAGTGCTTCATACGTATGTCTAAATACGGAGTCACCTAGTGCAG”, the binding signal is 10500 fluorescence intensity (a.u.).

Take “GGTTGGTGGTTGGCAAAAGAGGACGTGTGAAGGAAAAGGTCGGAGTCACCTAGTGCAG”: the binding signal is 10900 fluorescence intensity (a.u.).

In the case of “GAATGATTCTTATGATCATATCCAACTTATTACGTCCTGTCGGAGTCACCTAGTGCAG”, the binding signal was 9860 fluorescence intensity (a.u.).

In the case of “TATCTTCTTGTACCTTTTGTCCTCTTATTGATTGTAAAAACGGAGTCACCTAGTGCAG”, the binding signal is 10300 fluorescence intensity (a.u.).

As for “AGTTGGCACACCTGCTTTGGTCAACGTACGTTTATCAATCCGGAGTCACCTAGTGCAG”, the binding signal was 10100 fluorescence intensity (a.u.).

Turning to “GGCTTCGCATCGCTCCTCCTCGTCTGACTTCGCGTCACTCCGGAGTCACCTAGTGCAG”, the binding signal is 8080 fluorescence intensity (a.u.).

For “AAGCAGCAAAAGTCACACATACACTCTCTCTGCTACTACTCGGAGTCACCTAGTGCAG”, the binding signal is 8160 fluorescence intensity (a.u.).

Turning to “TTTTTTTTCATCTTGTCTGTCACCTGCCGCCCTCAGTCTACGGAGTCACCTAGTGCAG”, the binding signal is 9570 fluorescence intensity (a.u.).

As for “TCGCTCTAACTTCTACTCGATCGTTTTTCACGCGCTCCTTCGGAGTCACCTAGTGCAG”, the binding signal was 11700 fluorescence intensity (a.u.).

With “TACAGGCTTTATTACAGGTCTTCTTATCGCCGGTCGTACGCGGAGTCACCTAGTGCAG”, the binding signal was 8640 fluorescence intensity (a.u.).

Turning to “TCCACCGATTCGGCTTCCACCGCTGCCGATTCCCAATTCCCGGAGTCACCTAGTGCAG”, the binding signal is 12100 fluorescence intensity (a.u.).

Take “TCACGTTGACCCGGTCGCCATGCACCCGCAAGCTCATCCACGGAGTCACCTAGTGCAG”: the binding signal is 9030 fluorescence intensity (a.u.).

As to “TCTATACCTCTTTCTTTCTCGGTCTCTCCAGTACCCTACTCGGAGTCACCTAGTGCAG”, the binding signal is 11200 fluorescence intensity (a.u.).

Turning to “TTCTCACTGAATTAGCTAGGGCTGCCTCGTCTCTTATTCTCGGAGTCACCTAGTGCAG”, the binding signal is 8410 fluorescence intensity (a.u.).

As to “TCTATCAGACTCTTCTTTATCCAGTACCTTTTAGGGTTTGCGGAGTCACCTAGTGCAG”, the binding signal was 9010 fluorescence intensity (a.u.).

Consider “CCGCCGCCGCCCGTCCTGCCTGCTTCGCAGCCGCGCTAGCCGGAGTCACCTAGTGCAG”, for which the binding signal is 8650 fluorescence intensity (a.u.).

As for “TCCACTCGCTCGTCTCGTCTCTCCGCTCTCTTCCGGACTTCGGAGTCACCTAGTGCAG”, the binding signal was 10200 fluorescence intensity (a.u.).

“CTTGTTATGTTCCGTTTCTTCCAGCTTTGGTGCTCTCTCACGGAGTCACCTAGTGCAG”: the binding signal was 9010 fluorescence intensity (a.u.).

“TCGCTCTTATCCTTTTTTTTTTCACACGAGTGCAACTGTCCGGAGTCACCTAGTGCAG”: the binding signal is 8450 fluorescence intensity (a.u.).

For “CCTATTGGACCACTAGAACATGTCGTCCTTCAGGCCAACTCGGAGTCACCTAGTGCAG”, the binding signal is 8050 fluorescence intensity (a.u.).

In the case of “CACATTTTGTTAAACTTATCATTTCTACTTCCATATATTACGGAGTCACCTAGTGCAG”, the binding signal is 8220 fluorescence intensity (a.u.).

On to “AAGTTACCACTCCGGCACTCACACAATCACATTCACATTTCGGAGTCACCTAGTGCAG”, for which the binding signal is 9820 fluorescence intensity (a.u.).

On to “TGCATGCCTCGATCGTCTATCTCATCTTGTAGTGCGTTTCCGGAGTCACCTAGTGCAG”, for which the binding signal was 10000 fluorescence intensity (a.u.).

On to “GCTGGGGAGGGAGGGGAGGCGGCCGGCCACCAACCCATCGCGGAGTCACCTAGTGCAG”, for which the binding signal was 11500 fluorescence intensity (a.u.).

As to “CGTCCAGTCGTCGTAGCCCCTACTCGCCGGCGCCGCTCCACGGAGTCACCTAGTGCAG”, the binding signal is 9930 fluorescence intensity (a.u.).

“GCAGTACCTTTTTTTCCCTTTTGGCACTTGAAAGCAACCTCGGAGTCACCTAGTGCAG”: the binding signal was 11700 fluorescence intensity (a.u.).

Consider “AACATGTTTGACCATTCGTCTTATTCAAAAACCTTTTGTGCGGAGTCACCTAGTGCAG”, for which the binding signal is 8040 fluorescence intensity (a.u.).

On to “CATTTCTTGCCACCTTTATTCGATTCCACCACTTGACACACGGAGTCACCTAGTGCAG”, for which the binding signal is 9820 fluorescence intensity (a.u.).

As for “CGCGTCACCGGATCCAACTCGGCCCACTCGCATCGATTCTCGGAGTCACCTAGTGCAG”, the binding signal was 12000 fluorescence intensity (a.u.).

For the sequence “ATACTCACATGGATTCACCTCTGTTATGATTTTTGACAAACGGAGTCACCTAGTGCAG”, the binding signal is 9380 fluorescence intensity (a.u.).

“TCTTGGTTAGTTGGATTTTTAGCTTCCGTGTTTTTTGAGCCGGAGTCACCTAGTGCAG”: the binding signal was 10900 fluorescence intensity (a.u.).

Take “CTTTTGCCAGTGGCCCATCATGGTAACTGTCTGCACTACGCGGAGTCACCTAGTGCAG”: the binding signal is 8270 fluorescence intensity (a.u.).

Take “TTTACAGTTGATTTTGACGGGTTTGTTGGCGAGGATTTTTCGGAGTCACCTAGTGCAG”: the binding signal was 9360 fluorescence intensity (a.u.).

On to “TGATGGTGAGGTGACTTTTGTTTCTTGATTTCGCGTTGCCCGGAGTCACCTAGTGCAG”, for which the binding signal is 9420 fluorescence intensity (a.u.).

Regarding “AGAATTGCACATTGTATCCAGCCTATCACTCAATCACCTCCGGAGTCACCTAGTGCAG”, the binding signal is 8720 fluorescence intensity (a.u.).

In the case of “CGCTGCGCACTCACCTCTCATCGTCGCACGCACGCCCGCACGGAGTCACCTAGTGCAG”, the binding signal was 9630 fluorescence intensity (a.u.).

In the case of “AGTGTTGTATCCGTCGGCTGCCCCATAGTCTTGGTCCTCTCGGAGTCACCTAGTGCAG”, the binding signal is 11400 fluorescence intensity (a.u.).

As for “AGCCTATGTATCCATATATACACTCCCATTTAGTTATTTCCGGAGTCACCTAGTGCAG”, the binding signal is 11700 fluorescence intensity (a.u.).

As for “CTCCTTTAGCTAAAACCACAAGACTGCCATTCTCTACGAACGGAGTCACCTAGTGCAG”, the binding signal was 8400 fluorescence intensity (a.u.).

For the sequence “CTGCCACGTCACATTTGCCGCCCTCTGGGAGGGCGATTTTCGGAGTCACCTAGTGCAG”, the binding signal is 8580 fluorescence intensity (a.u.).

On to “ACTACCACTGCATAGTGTCATGCATCATTGACTCATCATCCGGAGTCACCTAGTGCAG”, for which the binding signal was 11700 fluorescence intensity (a.u.).

“GGGGAGGGGAGAATGGGCCGATGGCCCACTCGAAGGAAAACGGAGTCACCTAGTGCAG”: the binding signal is 10100 fluorescence intensity (a.u.).

Consider “AAACTCGACGCAACCCCTACCTGGCGCGCCAACTGTCGAACGGAGTCACCTAGTGCAG”, for which the binding signal was 9170 fluorescence intensity (a.u.).

Consider “GCTACTCATACTCCCCTGTTCTATGGTGTTGTGATTTGTGCGGAGTCACCTAGTGCAG”, for which the binding signal was 8050 fluorescence intensity (a.u.).

In the case of “TTCGTCGATCAGCGTCACGAGCCATTAATTCCTTTCTCGCCGGAGTCACCTAGTGCAG”, the binding signal is 9790 fluorescence intensity (a.u.).

Turning to “GGCCGGCGACCAGCTTCGCCGCCACCCATGTATCGTCTCTCGGAGTCACCTAGTGCAG”, the binding signal was 10000 fluorescence intensity (a.u.).

For the sequence “GATTTTCTAGGTTTCATCCAATATCAATCTCTTCTCCTCACGGAGTCACCTAGTGCAG”, the binding signal is 8240 fluorescence intensity (a.u.).

As for “CTGCGCGTCCCTTTTTGTTTCTCTTTCTCCTAGCAACAAGCGGAGTCACCTAGTGCAG”, the binding signal is 14600 fluorescence intensity (a.u.).
